In PubChem BioAssay AID2685 (National Center for Advancing Translational Sciences (NCATS), 2010) one finds cell number change and AC50 data, which are given here for 42 compounds.

Some of the results follow. These are further read-outs of the screen, such as a control signal, another cell line or another target. No call is given for them. Compounds called inactive in the main read-out are mostly missing here. Words in brackets tell the shape of the fitted curve; partial curves, single points and poor fits give uncertain potencies.

The nature of this experiment: qHTS Assay for Lipid Storage Modulators in Drosophila S3 Cells.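 As to cell number change: cells counted by Cell Tracker Red CMTPX staining in the red channel.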 Conditions: BODIPY lipid droplet fluorescence, 18-24 h; for cell number change: measured here: cell count max response, cells fed with added oleic acid. In a few lines:
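Drosophila S3 cells loaded with oleic acid (400 uM, as added) and compounds at several concentrations; lipid droplets imaged by 488-nm laser-scanning cytometry, 500–530 nm intensity and object ratio to cell channel. Percent activity normalized to 20 uM Triacsin C.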
(In qHTS, concentration-response curves come from the screen itself.)

The mark [1] stands for this setting: measured here: lipid fluorescence (Fed channel) AC50, cells fed with added oleic acid.
Where [2] appears, read: measured here: cell number channel AC50, cells fed with added oleic acid.

Turning to `O=C(NCC(=O)N(c1cccc(F)c1)C(C(=O)NCC1CCCO1)c1ccccc1)c1ccco1` (stereo not drawn), the cell number change was found to be 11.4%. Besides, the half-maximal activity concentration (AC50) under setting [1] was 116 nM [falling, full curve, poor fit].
Take `CN(C)C(=O)c1ccc(NC(=O)c2ccccc2SCC(=O)N2CCCC2)cc1`: the cell number change is -11%. The AC50 under setting [1] was 184 nM [rising, full curve, poor fit].
For `Cc1ccc(N2CC(C(=O)NNC(=O)c3ccc(F)cc3)CC2=O)cc1` (stereo not drawn), the cell number change was -1.38%. Moreover, the AC50 under setting [1] was 2590 nM [rising, full curve].
In the case of `COCCCNC(=S)Nc1ccccc1C`, the cell number change is -29.9%.
Turning to `CCOCc1cnc(C)nc1NCC(=O)c1c(C)n(C)c2ccc(OC)cc12`, the cell number change was -9.13%. For the same compound, the AC50 under setting [1] was 920 nM [rising, partial curve, poor fit].
As to `CC(C)Cc1nnc(NC(=O)C2CSC3(C)CCC(=O)N23)s1` (stereo not drawn), the cell number change was -30.1%. The AC50 under setting [2] was 2060 nM [falling, full curve, poor fit].
As to `O=C(Cc1csc(-c2ccccc2)n1)NCc1ccco1`, the cell number change was -10.6%.
For the compound `CC(C)C[C@H](NC(=O)Nc1cccc(Cl)c1)C(=O)O`, the cell number change was -46.2%. In addition, the concentration at half-maximal activity (AC50) under setting [2] is 29100 nM [falling, single point]. The half-maximal activity concentration (AC50) under setting [1] is 231 nM [falling, full curve].
Consider `O=C(NCc1ccncc1)C12CC3CC(CC(Cl)(C3)C1)C2`, for which the cell number change turned out to be 10.3%.
Turning to `COc1ccc(C(=O)Nc2ccc(C(=O)N3CCCCC3C)cc2)c(OC)c1OC` (stereo not drawn), the cell number change amounted to 14.7%.
On the same count and under the same terms, the figure for `CC(C)Cc1cc(C(=O)O)n[nH]1` is 18.5%.
`CC(=O)c1cccc(NC(=O)c2cc(-c3ccncc3)nc3ccccc23)c1`: the cell number change is -1.17%. Under setting [1], the AC50 is 731 nM [falling, single point].
With `Cc1ccccc1CN1C(=O)CSc2ccc(C(=O)N3CCOCC3)cc21`, the cell number change was -13.4%. Moreover, under setting [1], the AC50 was 461 nM [falling, full curve].
For `COc1ccc([C@@H]2CC=C(C(=O)O)[C@H](c3ccc(F)cc3)N2S(=O)(=O)c2ccccc2C)cc1`, the cell number change amounted to 10.4%.
Regarding `O=C(Nc1ccc(CN2CCS(=O)(=O)CC2)cc1)c1ccc(Cl)cc1`, the cell number change worked out at 5.08%. The concentration at half-maximal activity (AC50) under setting [2] was 920 nM [falling, single point].
As to `C=C(C)Cc1c(C)c(C#N)c2[nH]c3ccccc3n2c1=O`, the cell number change is 34.2%. For the same compound, under setting [2], the AC50 was 29100 nM [rising, single point].
With `CS(=O)(=O)N1CCN(c2ccc(NC(=S)NC(=O)c3ccc4c(c3)OCO4)cc2)CC1`, the cell number change came out at 8.45%.
On the same count and under the same terms, the figure for `Cc1ccc(/C=N/NC(=O)Cn2nc(C)c(Br)c2C)o1` is -10.4%.
As for `COc1ccc(OCC(=O)Nn2c(-c3ccc(OC)cc3)nc3ccccc3c2=O)cc1`, the cell number change was -9.03%. Moreover, the AC50 under setting [1] is 3260 nM [rising, full curve].
On to `Cc1nn(S(=O)(=O)c2ccccc2)c(C)c1Sc1ccc([N+](=O)[O-])cc1`, for which the cell number change turned out to be 89.7%. The half-maximal activity concentration (AC50) under setting [2] was 18400 nM [rising, single point]. For the same compound, under setting [1], the AC50 is 18400 nM [rising, single point].
For the compound `Cc1c(C(=O)O)nn(-c2cccc(C(F)(F)F)c2)c(=O)c1C#N`, the cell number change amounted to 3.59%.
On the same count and under the same terms, the figure for `COc1ccc(S(=O)(=O)NCc2ccco2)c2ccccc12` is -5.87%.
With `C#CCOCCOCCOCCNc1nc(N2CCN(C(=O)C([C@@H](C)CC)n3cc(C(N)Cc4ccc(O)cc4)nn3)CC2)nc(N2CCN(C(=O)[C@H](CCC(=O)O)n3cc(C(N)[C@H](C)CC)nn3)CC2)n1` (stereo partly drawn), the cell number change is -12.8%. The half-maximal activity concentration (AC50) under setting [1] is 32600 nM [falling, single point].
With `COc1ccc(NC(=O)Cc2nnc(SCC(=O)Nc3cc(C)ccc3OC)n2C)cc1`, the cell number change turned out to be 4.04%. Moreover, the concentration at half-maximal activity (AC50) under setting [1] was 291 nM [rising, full curve, poor fit].
Take `O=C(Nc1ccccc1NC(=O)c1c(F)cccc1F)c1c(F)cccc1F`: the cell number change was -14.8%.
As to `Cc1ccc(S(=O)(=O)N2CCC(C(=O)OCC(=O)N(CCC#N)c3ccc(F)cc3)CC2)cc1C`, the cell number change is 2.24%.
As to `COc1ccc(NC(=O)CCOc2ccccc2C)cc1S(=O)(=O)N1CCCCC1`, the cell number change is -30.6%. Under setting [2], the concentration at half-maximal activity (AC50) was 18400 nM [falling, single point]. Further, under setting [1], the AC50 is 411 nM [falling, full curve].
Regarding `O=C(CN1CCN(Cc2ccccc2Cl)C1=O)NCc1ccccn1`, the cell number change was -25.5%. Further, the half-maximal activity concentration (AC50) under setting [1] is 23100 nM [falling, single point].
Take `CN(CCC#N)C(=O)Cn1nc(Cc2ccncc2)c2ccccc2c1=O`: the cell number change worked out at 7.83%.
Regarding `CC(C)C(NS(=O)(=O)/C=C/c1ccccc1)C(=O)NCc1ccc(F)cc1` (stereo not drawn), the cell number change turned out to be 6.67%. Besides, under setting [1], the AC50 was 206 nM [rising, single point].
For `O=C1NC(=O)C(c2ccc(F)cc2)N1` (stereo not drawn), the concentration at half-maximal activity (AC50) under setting [1] was 5.8 nM [falling, full curve, poor fit].
Take `C=C(C)Cn1c(SCC(=O)O)nnc1-c1ccccc1`: the cell number change was -48.2%. Moreover, the AC50 under setting [2] was 8200 nM [falling, partial curve].
In the case of `O=C1CSc2ccc(C(=O)NCCC3=CCCCC3)cc2N1`, the cell number change is 4.79%. Further, the half-maximal activity concentration (AC50) under setting [1] is 9200 nM [rising, partial curve].
With `COc1ccc(N2CCN(C(=O)c3ccc(NC(=O)C4=CSCCO4)cc3)CC2)cc1`, the cell number change came to 4.78%.
Consider `CC(=O)c1cccc(N=Nc2c(C)[nH]c3ccccc23)c1`, for which the cell number change was found to be 78%. The half-maximal activity concentration (AC50) under setting [2] is 29100 nM [rising, single point]. Further, under setting [1], the AC50 was 116 nM [rising, partial curve, poor fit].
As to `O=C(CCc1nc2ccccc2c(=O)[nH]1)N1CCN(C/C=C/c2ccccc2)CC1`, the cell number change was -29.1%. Under setting [1], the AC50 was 18400 nM [falling, single point].
Turning to `Cc1cccc(C)c1N1C(=O)CCC(C)(C)C1=O`, the cell number change was determined as 19.4%. Moreover, the AC50 under setting [1] was 116 nM [falling, partial curve, poor fit].
Consider `Cc1nn(Cc2ccc([N+](=O)[O-])cc2)c(=O)n1-c1cccc(Cl)c1`, for which the cell number change was -56.1%.
For the compound `CN1C(=O)N(CC(=O)Nc2sccc2C(N)=O)C(=O)C12CCCCC2`, the cell number change was determined as 7.63%. In addition, the AC50 under setting [1] was 2590 nM [rising, partial curve].
With `COc1nc(C)nc2c1ccc1ccccc12`, the cell number change is -35.6%. Moreover, under setting [2], the AC50 is 10300 nM [falling, partial curve]. The concentration at half-maximal activity (AC50) under setting [1] is 16400 nM [falling, partial curve, poor fit].
On to `O=C(CN1C(=O)c2ccccc2C1=O)NCC(=O)OCC(=O)c1ccc(Br)cc1`, for which the cell number change was -15.6%.
Turning to `O=C(CSc1nnc(C2CC2)n1C1CC1)c1ccccc1F`, the cell number change is -43.7%. Besides, the AC50 under setting [2] is 18400 nM [falling, single point]. Under setting [1], the AC50 was 16400 nM [falling, single point].

Usually AC50 stands for the concentration giving half of the maximal activity seen. Higher therefore signals activity only at high concentration.
